# Measurements from PubChem BioAssay AID493014 (National Center for Advancing Translational Sciences (NCATS), 2011).
# The list shows a part of the results. Shown are side measurements of this screen, not its main read-out; they come without a call. Most of these compounds were active or inconclusive in the main read-out, so they are no random draw. Potencies come from curve fits of mixed quality, noted in brackets.
# Experiment: qHTS Assay to Find Inhibitors of Chronic Active B-Cell Receptor Signaling
# Settings: ABC-DLBCL IkBa-CBG/CBR reporter, luminescence ratio (green luciferase fused to IkBa over red control in TMD8 lymphoma cells), 4 h
# In short: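 Doxycycline induced both beetle luciferases in TMD8 lymphoma cells; IKK-driven degradation limits the IkappaBalpha-fused green signal, while red luminescence normalises for cell number and nonspecific effects. Compounds tested up to 46 uM, 4 hrs.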
# [1] = measured here: CBR red luminescence, cell number
# [2] = measured here: IkBa-CBG green luminescence
SMILES,AC50 [1],AC50 [2]
NS(=O)(=O)c1ccc(NC(=O)/C=C/c2ccccc2Cl)cc1,"5.62 µM [rising, single point]",–
O=C1CCN(Cc2ccc(Br)cc2)CCN1[C@H](CO)c1ccccc1,"35.5 µM [falling, single point]",–
Cc1cccc(C(=O)NNC(=O)c2cccc(C)c2)c1,"18.4 µM [falling, single point]",–
CC1CCc2c(sc(NC(=O)c3cccs3)c2C(=O)O)C1 (configuration not stated),"1.12 µM [falling, full curve]",–
Nc1nncn1C(=O)c1ccccc1Cl,"9.2 µM [falling, partial curve, poor fit]",–
O=C(CCC1CCCC1)NCc1cccs1,"1.41 µM [rising, partial curve, poor fit]",–
COc1ccc(-n2c(NC(=O)c3ccc(Br)o3)c(C#N)c3nc4ccccc4nc32)cc1,"0.501 µM [rising, partial curve, poor fit]",–
CCCCNc1c(-c2ccc(OC)c(Sc3ccc(OC)cc3)c2)nc2ccccn12,"20.6 µM [falling, partial curve]","25.9 µM [rising, partial curve, poor fit]"
CC(=O)NCCc1nc2cc(NC(=O)c3ccc(Cl)cc3)ccc2n1C,"11.2 µM [falling, partial curve, poor fit]",–
Fc1ccc(NC(=S)NCCN2CCOCC2)c(F)c1F,"35.5 µM [falling, single point]",–
CCn1c2ccccc2c2cc(NC(=O)CCCN3C(=O)CCC3=O)ccc21,"1.16 µM [falling, full curve, poor fit]",–
CCCc1[nH]nc2c1C(c1ccc(OC)cc1OC)C(C#N)=C(N)O2 (configuration not stated),"23.1 µM [falling, single point]",–
COc1cc(=O)[nH]c(SCc2c(F)c(F)c(F)c(F)c2F)n1,"23.1 µM [rising, partial curve, poor fit]",–
Cc1cccc(COCC(Cc2ccccc2)N2CCN(C(=O)c3cc(Cl)cc(Cl)c3)CCC2=O)c1 (configuration not stated),"32.6 µM [falling, single point]",–
COCCCNCCCCOc1c(Cl)cc(C)cc1Br,"2.51 µM [falling, full curve, poor fit]",–
CN(Cc1ccco1)c1ncnc2ccc(-c3cccnc3)cc12,"32.6 µM [rising, single point]",–
CCOc1ccc(-c2nc(C#N)c(NC3CC3)o2)cc1,"18.4 µM [rising, partial curve, poor fit]",–
O=C(N/N=C(\c1ccccc1)c1ccccn1)c1ccccc1Cl,"28.2 µM [rising, single point]","25.1 µM [falling, single point]"
COCCn1c(SCC(=O)N2CCCc3ccccc32)nc2ccccc2c1=O,"2.24 µM [falling, full curve]",–
O=C(CC1CCCCC1)NCc1ccc(Cl)cc1,"35.5 µM [rising, partial curve, poor fit]",–
COc1ccc(COC(=O)C2=C(C)NC(=O)NC2c2cc(Br)c(O)c(OC)c2)cc1 (configuration not stated),"2.82 µM [rising, full curve, poor fit]","14.1 µM [falling, partial curve, poor fit]"

# Full records as entered above.
# COCCn1c(SCC(=O)N2CCCc3ccccc32)nc2ccccc2c1=O in the list: AC50 [1]: 2.24 µM [falling, full curve]
# CCCCNc1c(-c2ccc(OC)c(Sc3ccc(OC)cc3)c2)nc2ccccn12 in the list: AC50 [1]: 20.6 µM [falling, partial curve]; AC50 [2]: 25.9 µM [rising, partial curve, poor fit]

# (listing goes on)

SMILES,AC50 [1],AC50 [2]
COc1ccc(C(=S)N2CCN(S(=O)(=O)c3ccccc3)CC2)cc1,"20 µM [falling, single point]",–
NC(=O)c1nsc(C(=O)N(c2cccc(F)c2)C(C(=O)NCC2CCCO2)c2ccc3ncccc3c2)c1N (configuration not stated),"0.447 µM [rising, full curve, poor fit]",–
CCOC(=O)Nc1nc(C)c(C(=O)c2ccc(Cl)cc2)s1,"3.26 µM [rising, full curve, poor fit]",–
Cc1ccc(C(=O)Nc2sc3c(c2C(=O)O)CCCCC3)o1,"1 µM [falling, full curve, poor fit]",–
COc1ccc(N2CCN(C(=O)CSc3nnc(-c4cccnc4)n3-c3ccc(F)cc3)CC2)cc1,"0.92 µM [rising, partial curve, poor fit]",–
CC(=O)N1CCC2(CC1)CC(=O)c1cc(OCC(=O)N3CCOCC3)ccc1O2,"20 µM [falling, partial curve]",–
COc1ccc2c(c1OC)c(=O)n1c3ccc(OC(C)C(=O)NCCCN4CCOCC4)cc3c3ccnc2c31 (configuration not stated),"14.1 µM [falling, partial curve, poor fit]",–
O=C(CCC1COc2ccccc2O1)NCc1ccco1 (configuration not stated),–,"5.8 µM [rising, full curve, poor fit]"
COc1ccccc1C(=O)Nc1nc2cc3c(cc2s1)OCO3,"0.316 µM [rising, full curve, poor fit]",–
Cc1ccc(NC(CC(=O)c2ccccc2)C(=O)O)cc1Cl (configuration not stated),"17.8 µM [falling, partial curve, poor fit]",–
O=C(/C=C/c1c(Cl)cccc1Cl)NCCc1ccccc1,"2.82 µM [rising, single point]",–
CC1=C(C(=O)OC(C)C)C(c2cccc(F)c2)N2C(=O)C(C)SC2=N1 (configuration not stated),"29.1 µM [falling, single point]",–
CCCCn1c(=O)c(F)cn(Cc2ccc(OC)c([N+](=O)[O-])c2)c1=O,"13 µM [rising, partial curve]","25.9 µM [falling, partial curve, poor fit]"
C=CCNS(=O)(=O)c1ccc2c(c1)n(C)c(=O)n2C,"14.1 µM [falling, partial curve, poor fit]",–
COC(=O)c1ccc2nc(NC(=O)C(C)C)sc2c1,"35.5 µM [falling, single point]",–
N#CC1(NC(=O)COC(=O)c2ccc(-c3ccc(O)cc3)cc2)CCCCC1,"7.31 µM [rising, partial curve, poor fit]",–
CC(=O)c1ccc2c(c1)N(C)c1ccccc1S2,"20.6 µM [rising, partial curve, poor fit]",–
CCSc1nc2ccccc2c(=O)n1CCc1ccc(OC)c(OC)c1,"8.91 µM [falling, partial curve]",–
CSCCC(NC(N)=O)C(=O)Nc1cccc(S(=O)(=O)N2CCOCC2)c1 (configuration not stated),"12.6 µM [rising, partial curve, poor fit]",–
CCOC(=O)C1CCCN(C2=NC(=O)/C(=C/c3ccc(O)c(OC)c3)S2)C1 (configuration not stated),"25.1 µM [falling, single point]",–
O=C(N/N=C/c1ccc2c(c1)OCO2)c1ccc(Cn2cc([N+](=O)[O-])cn2)o1,"9.2 µM [falling, partial curve]",–

SMILES,AC50 [1],AC50 [2]
CC(Nc1n[nH]c(=O)[nH]c1=O)C(=O)N/N=C/c1ccccc1 (configuration not stated),"0.562 µM [falling, full curve, poor fit]",–
O=C(COC(=O)c1ccc(Cl)cc1[N+](=O)[O-])NC(=O)c1ccccc1,"35.5 µM [rising, single point]",–
O=C(NNC1CC(=O)N(c2ccc3c(c2)OCCO3)C1=O)c1ccccc1 (configuration not stated),"35.5 µM [falling, single point]",–
N#Cc1cc2c(N)c(C(=O)Nc3ccccc3)sc2nc1N,"5.8 µM [falling, partial curve]",–
CCCC(C)C(=O)Nc1ccc(Cl)cc1Cl (configuration not stated),"29.1 µM [rising, single point]",–
O=C(/C=C/c1ccccc1)Nc1ccc2c(c1)C(=O)NC2=O,"0.1 µM [falling, full curve]",–
CCN1C(C(=O)Nc2cc(C)on2)=C(O)c2ccccc2S1(=O)=O,"10 µM [rising, partial curve, poor fit]",–
Fc1ccc(-n2nnc(-c3cnc4ccccc4c3)n2)cc1,"3.55 µM [falling, full curve]",–
Cc1ccccc1CC(=O)NC1CCN(Cc2ccccc2)CC1,"6.31 µM [rising, full curve, poor fit]",–
CC(=O)c1cnc(-c2cccc(Cl)c2)s1,"11.2 µM [rising, partial curve, poor fit]",–
CN(Cc1ccco1)S(=O)(=O)c1cc(F)ccc1CN1C(=O)c2cccnc2C1=O,"6.31 µM [falling, single point]",–
CCCCCCN(C(=O)CCCCCN1C(=O)NC(c2ccc(-c3ccccc3)cc2)C(C(=O)OCc2ccccc2)=C1C)C(C(=O)NCCCC)c1ccc(OCC(=O)OC)c(C(=O)OC)c1 (configuration not stated),"3.55 µM [rising, single point]",–
Cc1ccc(CNC(=O)C(=O)NCC(c2ccco2)S(=O)(=O)c2ccc(C)cc2)cc1 (configuration not stated),"1.26 µM [rising, full curve]",–
COC(=O)c1ccc(C(=O)OC)c(NC(=O)CCc2ccc(C)o2)c1,"20.6 µM [falling, single point]",–
Cn1ncc2c(Nc3ccc(Cl)c(Cl)c3)ncnc21,"4.47 µM [rising, single point]",–
Cc1ccc(-n2nnnc2SCc2ccccn2)cc1C,"2.06 µM [rising, partial curve, poor fit]",–
Cc1nc(NC2=NCN(CCc3ccccc3)CN2)nc2ccccc12,"25.9 µM [falling, partial curve, poor fit]",–
Nc1nnc(SCC(=O)Nc2cc(C(F)(F)F)ccc2N2CCOCC2)s1,"29.1 µM [falling, single point]",–
CCCn1c(SCC(=O)c2ccc3c(c2)OCCO3)nnc1C(C)C,"22.4 µM [falling, single point]",–
O=C(/C=C/Nc1ccc([N+](=O)[O-])cc1)c1ccc(Br)cc1,"9.2 µM [rising, partial curve, poor fit]",–
Clc1ccc(SCCCCN2CCNCC2)cc1,"13 µM [falling, partial curve, poor fit]",–
